From article PMC10511046 come the findings set out here.

The target in the assay is T1, Full-length Igsf9b (expressed in HEK293) (UniProt E9PZ19).
T1 sequence: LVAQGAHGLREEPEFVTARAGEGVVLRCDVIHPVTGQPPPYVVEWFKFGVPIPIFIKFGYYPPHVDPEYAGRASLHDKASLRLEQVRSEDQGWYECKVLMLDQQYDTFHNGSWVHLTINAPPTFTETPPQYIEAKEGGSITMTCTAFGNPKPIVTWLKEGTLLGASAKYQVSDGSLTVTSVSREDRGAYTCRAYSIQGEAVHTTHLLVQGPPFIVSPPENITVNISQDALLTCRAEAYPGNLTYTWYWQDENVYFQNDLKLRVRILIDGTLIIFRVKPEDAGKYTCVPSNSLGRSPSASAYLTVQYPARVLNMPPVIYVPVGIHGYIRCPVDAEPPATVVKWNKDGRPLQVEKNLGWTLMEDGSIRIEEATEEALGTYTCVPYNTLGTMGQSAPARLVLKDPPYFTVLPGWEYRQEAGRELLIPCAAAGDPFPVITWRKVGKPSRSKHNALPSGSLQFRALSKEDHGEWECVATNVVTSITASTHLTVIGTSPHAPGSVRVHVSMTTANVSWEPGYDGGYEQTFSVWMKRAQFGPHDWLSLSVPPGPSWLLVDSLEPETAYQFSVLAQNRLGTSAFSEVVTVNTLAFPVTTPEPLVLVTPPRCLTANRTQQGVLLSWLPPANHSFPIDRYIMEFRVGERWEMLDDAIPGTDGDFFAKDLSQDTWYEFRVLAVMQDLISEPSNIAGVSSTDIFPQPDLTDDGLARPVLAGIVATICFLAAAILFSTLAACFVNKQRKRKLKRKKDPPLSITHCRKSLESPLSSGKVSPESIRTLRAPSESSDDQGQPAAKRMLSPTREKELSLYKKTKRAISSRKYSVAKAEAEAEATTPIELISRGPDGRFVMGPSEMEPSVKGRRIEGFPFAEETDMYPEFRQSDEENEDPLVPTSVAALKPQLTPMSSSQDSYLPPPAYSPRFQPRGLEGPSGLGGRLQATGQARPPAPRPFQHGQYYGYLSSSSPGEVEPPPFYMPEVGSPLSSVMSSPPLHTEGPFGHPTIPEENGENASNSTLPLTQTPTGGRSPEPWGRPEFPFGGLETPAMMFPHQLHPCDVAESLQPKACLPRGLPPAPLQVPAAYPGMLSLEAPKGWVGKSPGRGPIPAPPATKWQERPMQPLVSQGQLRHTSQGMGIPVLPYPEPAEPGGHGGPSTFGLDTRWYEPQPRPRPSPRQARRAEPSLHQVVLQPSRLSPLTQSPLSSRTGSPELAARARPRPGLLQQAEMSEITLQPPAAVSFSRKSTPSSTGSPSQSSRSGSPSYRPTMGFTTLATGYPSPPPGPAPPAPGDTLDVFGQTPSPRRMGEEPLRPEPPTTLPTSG
Put plainly: co-IP; HEK293 cells transiently expressing GFP-Prickle2 constructs and Igsf9b, lysed in RIPA buffer; Igsf9b precipitated with anti-Igsf9b antibody, immunoblotting with anti-GFP antibody.

These are yes or no findings as the source states them, for the method shown. Binding seen in cells or lysates may run through a third protein. A result given as binding can be weak or reduced; the word gives no strength.

In the case of “GFP-tagged Prickle2 fragment PK2-C1 (aa 600-886) (mouse) (domain or fragment)”, the binding result was “no binding”.

With “GFP-tagged Prickle2 fragment PK2-N1 (aa 1-324) (mouse) (domain or fragment)”, the binding entry was “no binding”. The value for “GFP-tagged Prickle2 fragment PK2-N2 (aa 1-599) (mouse) (domain or fragment)” was “binds”; that for “GFP-tagged Prickle2 mutant lacking the third LIM domain (PK2-del325_370) (mouse)” was “no binding”. As for GFP-tagged full-length Prickle2 (mouse), the binding result was “binds”.
